Test results: patent US20190315842A1
These are yes or no findings as the source states them, for the method shown. Some binding calls cover weakened binding; strength is not graded here.

Chains of the proteins cited; added tags and fusions are not shown. Residues count along the entry.
UniProt P08603, residues 1107-1231: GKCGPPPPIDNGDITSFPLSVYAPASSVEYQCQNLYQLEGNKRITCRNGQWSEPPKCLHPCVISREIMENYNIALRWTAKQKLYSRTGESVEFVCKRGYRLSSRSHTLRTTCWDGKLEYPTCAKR

Key:
[1] = target: reduced SCR19-20 (human CFH short consensus repeat domains 19 and 20, reduced) (human) (UniProt P08603); test: ELISA: TCEP-reduced SCR19-20-biotin captured on Neutravidin, antibody at 0.2 µg/ml, anti-human IgG-HRP/ABTS, OD 405 nm
[2] = target: reduced SCR19-20 (human CFH short consensus repeat domains 19 and 20, reduced) (human) (UniProt P08603); test: immunoblot, SDS-PAGE under reducing conditions, antibody at 0.5 µg/ml, anti-human IgG-HRP, chemiluminescence; lane numbers as in Table 10
[3] = target: SCR19-20 (human CFH short consensus repeat domains 19 and 20) (human) (UniProt P08603); test: ELISA: non-reduced SCR19-20-biotin captured on Neutravidin, antibody at 0.2 µg/ml, anti-human IgG-HRP/ABTS, OD 405 nm

B1: Ab7955 (antibody, V domains shown)
VH: LVESGGGVVRPGRSLRLSCVASGFTFNAYGMHWVRQGPGKGLEWLAVISYEGKTVYYADSVKDRFTISRDNSRNTVSLHLNNLRGEDTAVYYCAKGSASAAVLQHWGQGTLVSVTS
VL: MTQSPGSLAVSLGSRATINCKSSRSLLYRSNNKNYLAWYQQKPGQSPRLLIYWASSRESGVPDRFSGGGSGTSFTLTISSLQAEDVAVYYCQQYFNPPWTFGQGTKVEIK
With B1 the binding [1] was “binds” and the binding [2] was “binds”.

B2: Ab7957/293i (antibody, IgG1, V domains shown)
VH: LVESGGGVVPPGKSLRLSCAASGFTFSLYGIHWVRQAPGKGLEWVAVISYDGNTKYYTDSVKGRFTISRDNAKNTIYLQMNSLRLDDTAVYYCAKGAANSATFDFWGRGTMVTVSS
VL: MTQSPDSLTLSLGERATINCRSSRTVLYRSNNKNYLAWYQHKPGQPPKLLMSWASTRETGVPDRFSGSGSGTHFTLTITSLQPEDVAVYYCQQYYSPPWTFGQGTKVEIR
For B2, the binding [1] was “binds”, the binding [3] was “binds” and the binding [2] was “binds”.

B3: Ab7960/293i (antibody, IgG1, V domains shown)
VH: LVESGGGVVQPGKSLRLSCVASGFSFSTYGMHWVRQAPGKGLEWVAVMSFDGKTKYYADSVKGRFTISRDNPKNTLYLQMNSLRSEDTAVYYCAKGGAAAAVFDSWGPGILLTVSS
VL: MTQSPNSLAVSLGGRATINCKASQSILYRSNNKNYLAWYQHKAGQPPKLLIYWASTRESGVPERFSGSGSRTDFTLTINGLQAEDVAVYYCQQYYNPPWTFGQGTKVEIK
With B3 the binding [1] was “binds” and the binding [2] was “binds”.

B4: Ab7979 (antibody, IgG1, V domains shown)
VH: LVESGGGVVQPGKSLRLSCVASGFTFSTYGMHWVRQAPGKGLEWVAVMSFDGKTKYYADSVKGRFTISRDNPKNTLYLQMNSLRSEDTAVYYCAKGGAAAAVFDSWGQGILLTVSS
VL: MTQSPNSLAVSLGGRATINCKTSQSILYRSNNKNYLAWYQHKPGQPPKLLIYWASTRESRVPDRFSGSGSRTDFTLTISGLQAEDVAVYYCQQYYNPPWTFGQGTKVEIK
With B4 the binding [1] was “binds” and the binding [2] was “binds”.

B5: Ab7961/293i (antibody, IgG1, V domains shown)
VH: LVESGGGVVQPGKSLRLSCVASGFTFSSYGMHWVRQAPGKGLEWVAVMSFDGKTKYYADSVKGRFTISRDNPKNTLYLQMNSLRSEDTAVYYCAKGGAAAAVFDSWGQGILLTVSS
VL: MTQSPNSLAVSLGGRATINCKTSQSILYRSNNKNYLAWYQHKSGQPPKLLIYWASTRESGVPDRFSGSGSRTDFTLTISGLQAEDVAVYYCQQYYNPPWTFGQGTKVEIK
B5 was tested, and the binding [1] was “binds” and the binding [2] was “binds”.
